Assay results published in paper PMC8671480.
No constants are given. Whether binding was seen depends on the method and setting. Binding seen in cells or lysates may run through a third protein.

By UniProt entry, the sequences of proteins in these tests, tags left out.
UniProt Q62760: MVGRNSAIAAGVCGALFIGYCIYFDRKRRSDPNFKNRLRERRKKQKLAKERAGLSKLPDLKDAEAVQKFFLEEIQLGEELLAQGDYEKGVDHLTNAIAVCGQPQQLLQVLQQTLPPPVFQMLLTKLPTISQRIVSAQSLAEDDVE

T1: tumor necrosis factor receptor-associated protein 1 (TRAP1) (rat (endogenous in H9C2 and in rat heart tissue)) (UniProt Q5XHZ0)
T1 sequence: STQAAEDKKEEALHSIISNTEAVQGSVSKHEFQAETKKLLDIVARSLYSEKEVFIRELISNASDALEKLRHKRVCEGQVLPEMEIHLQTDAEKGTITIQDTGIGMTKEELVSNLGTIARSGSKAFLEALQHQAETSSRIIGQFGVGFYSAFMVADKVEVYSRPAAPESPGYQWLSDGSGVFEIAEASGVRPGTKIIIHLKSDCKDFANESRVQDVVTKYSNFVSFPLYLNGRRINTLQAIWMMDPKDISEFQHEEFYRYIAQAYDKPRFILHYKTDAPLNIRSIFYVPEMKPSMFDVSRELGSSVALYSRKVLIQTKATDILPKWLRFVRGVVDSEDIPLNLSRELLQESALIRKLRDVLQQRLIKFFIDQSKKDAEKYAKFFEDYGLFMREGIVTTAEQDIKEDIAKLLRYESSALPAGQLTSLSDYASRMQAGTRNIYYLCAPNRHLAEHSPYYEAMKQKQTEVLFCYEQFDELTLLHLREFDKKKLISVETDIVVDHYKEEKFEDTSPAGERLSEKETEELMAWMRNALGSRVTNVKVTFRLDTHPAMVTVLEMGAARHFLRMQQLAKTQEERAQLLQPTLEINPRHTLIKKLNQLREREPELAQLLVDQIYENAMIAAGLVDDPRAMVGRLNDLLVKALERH

B1: Prohibitin (protein, UniProt P67779 1-272)
chain: MAAKVFESIGKFGLALAVAGGVVNSALYNVDAGHRAVIFDRFRGVQDIVVGEGTHFLIPWVQKPIIFDCRSRPRNVPVITGSKDLQNVNITLRILFRPVASQLPRIYTSIGEDYDERVLPSITTEILKSVVARFDAGELITQRELVSRQVSDDLTERAATFGLILDDVSLTHLTFGKEFTEAVEAKQVAQQEAERARFVVEKAEQQKKAAIISAEGDSKAAELIANSLATAGDGLIELRKLEAAEDIAYQLSRSRNITYLPAGQSVLLQLPQ

Target: T1, tumor necrosis factor receptor-associated protein 1 (TRAP1) (rat (endogenous in H9C2 and in rat heart tissue))
Experiment: co-IP; H9C2 lysate (500 μg total protein) with anti-TRAP1 or anti-MIC60 on protein A/G magnetic beads, 4 °C, 6 h, washed with PBST (PBS, 0.5% Triton X-100); Western blot

Molecule	binding
TOM20 (from UniProt Q62760 1-145)	no binding
B1	no binding
